Several values for one entry are separate records, joined by “and”; a condition that tells them apart may be missing. Equal values may be shown once. At least one structure is not confirmed: it was looked up by name or label, or the drawing left a doubt.
System: SEQ ID NO. 5 (TAM-Ac)
Type: biochemical

## CC1=C[C@H]2O[C@@H]3[C@H](O)C[C@](C)([C@@]2(CO)[C@H](O)C1=O)[C@]31CO1 [DON, (3α,7α)-3,7,15-trihydroxy-12,13-epoxytrichothec-9-en-8-one]
  QTOF analysis result: 8-amino-DON: 5.39E+03 and 4.73E+03 and 4.84E+03
  QTOF analysis result: DON: 1.26E+06 and 1.29E+06

Source: US20230380451A1, “MEANS AND METHODS TO DETOXIFY MYCOTOXINS” (priority 2020, published 2023)
